Experimental data: the supplement of paper PMC10849652
Some of the results follow.

Protein sequences, listed by entry. Tags and fused reporters are not part of them. Lines headed by an entry give the natural chain unless they say otherwise; changes in a name come on top.
UniProt Q96PC5: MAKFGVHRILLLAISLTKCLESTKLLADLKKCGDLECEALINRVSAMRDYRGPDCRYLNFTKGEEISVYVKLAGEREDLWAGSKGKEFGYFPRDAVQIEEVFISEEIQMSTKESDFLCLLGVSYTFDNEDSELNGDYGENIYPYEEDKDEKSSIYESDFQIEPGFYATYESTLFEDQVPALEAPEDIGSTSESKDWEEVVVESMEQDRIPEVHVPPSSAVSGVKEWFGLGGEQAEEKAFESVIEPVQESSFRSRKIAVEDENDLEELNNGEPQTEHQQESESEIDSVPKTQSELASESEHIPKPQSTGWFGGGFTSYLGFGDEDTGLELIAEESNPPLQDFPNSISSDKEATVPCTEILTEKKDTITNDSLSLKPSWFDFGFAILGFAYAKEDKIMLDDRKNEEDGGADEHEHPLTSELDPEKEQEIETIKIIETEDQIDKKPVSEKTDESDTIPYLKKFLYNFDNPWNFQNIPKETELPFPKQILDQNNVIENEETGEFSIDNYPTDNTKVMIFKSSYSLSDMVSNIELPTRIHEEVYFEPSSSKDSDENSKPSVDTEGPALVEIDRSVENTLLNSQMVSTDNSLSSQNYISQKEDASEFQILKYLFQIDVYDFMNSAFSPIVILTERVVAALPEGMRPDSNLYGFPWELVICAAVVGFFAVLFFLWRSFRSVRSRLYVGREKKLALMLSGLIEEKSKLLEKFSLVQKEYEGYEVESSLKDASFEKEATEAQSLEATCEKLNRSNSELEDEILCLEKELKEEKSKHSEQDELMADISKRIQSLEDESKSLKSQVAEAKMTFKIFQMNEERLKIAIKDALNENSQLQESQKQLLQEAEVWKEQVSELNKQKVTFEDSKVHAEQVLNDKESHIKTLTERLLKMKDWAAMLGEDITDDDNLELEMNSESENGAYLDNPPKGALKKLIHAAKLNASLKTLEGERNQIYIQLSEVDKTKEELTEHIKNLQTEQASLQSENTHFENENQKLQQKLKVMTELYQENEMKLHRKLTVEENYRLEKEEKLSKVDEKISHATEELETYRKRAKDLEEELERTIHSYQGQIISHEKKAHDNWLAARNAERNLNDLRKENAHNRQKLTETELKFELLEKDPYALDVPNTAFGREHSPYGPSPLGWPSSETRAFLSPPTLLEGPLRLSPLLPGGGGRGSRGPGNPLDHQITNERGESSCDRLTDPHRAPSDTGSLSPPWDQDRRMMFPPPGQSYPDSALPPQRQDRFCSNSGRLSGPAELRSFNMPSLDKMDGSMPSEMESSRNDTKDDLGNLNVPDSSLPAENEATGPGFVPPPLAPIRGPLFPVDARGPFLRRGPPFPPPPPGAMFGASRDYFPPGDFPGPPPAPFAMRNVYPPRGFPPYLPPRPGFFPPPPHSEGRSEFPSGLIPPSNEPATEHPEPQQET
UniProt Q9UBP6: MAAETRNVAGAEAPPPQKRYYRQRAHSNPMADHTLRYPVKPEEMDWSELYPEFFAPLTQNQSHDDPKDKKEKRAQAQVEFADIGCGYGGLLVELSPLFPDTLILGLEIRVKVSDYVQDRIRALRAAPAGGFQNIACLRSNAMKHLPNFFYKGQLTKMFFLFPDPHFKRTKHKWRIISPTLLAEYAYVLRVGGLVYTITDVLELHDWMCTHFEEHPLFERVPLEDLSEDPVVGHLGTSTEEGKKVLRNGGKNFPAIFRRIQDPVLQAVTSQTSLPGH
UniProt O14880: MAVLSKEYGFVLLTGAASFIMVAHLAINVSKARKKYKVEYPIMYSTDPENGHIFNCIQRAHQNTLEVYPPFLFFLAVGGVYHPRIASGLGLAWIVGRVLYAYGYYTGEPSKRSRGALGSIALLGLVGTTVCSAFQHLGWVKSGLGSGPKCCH
UniProt Q96GW9: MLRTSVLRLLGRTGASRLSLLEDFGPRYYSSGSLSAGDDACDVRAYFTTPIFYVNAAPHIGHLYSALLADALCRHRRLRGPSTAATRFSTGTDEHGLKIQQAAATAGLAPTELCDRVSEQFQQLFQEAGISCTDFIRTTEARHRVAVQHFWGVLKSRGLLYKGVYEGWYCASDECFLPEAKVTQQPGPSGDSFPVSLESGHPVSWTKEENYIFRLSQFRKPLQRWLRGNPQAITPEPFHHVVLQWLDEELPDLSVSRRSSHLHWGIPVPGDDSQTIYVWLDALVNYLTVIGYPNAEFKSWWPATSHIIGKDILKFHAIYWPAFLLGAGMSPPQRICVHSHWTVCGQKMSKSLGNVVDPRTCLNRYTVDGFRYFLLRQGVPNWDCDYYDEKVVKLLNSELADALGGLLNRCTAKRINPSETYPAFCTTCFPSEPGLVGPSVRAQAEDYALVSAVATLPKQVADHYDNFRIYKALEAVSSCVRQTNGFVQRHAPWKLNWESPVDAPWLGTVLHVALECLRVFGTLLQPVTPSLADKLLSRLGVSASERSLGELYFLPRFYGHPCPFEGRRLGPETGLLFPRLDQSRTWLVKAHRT
UniProt Q96RQ3: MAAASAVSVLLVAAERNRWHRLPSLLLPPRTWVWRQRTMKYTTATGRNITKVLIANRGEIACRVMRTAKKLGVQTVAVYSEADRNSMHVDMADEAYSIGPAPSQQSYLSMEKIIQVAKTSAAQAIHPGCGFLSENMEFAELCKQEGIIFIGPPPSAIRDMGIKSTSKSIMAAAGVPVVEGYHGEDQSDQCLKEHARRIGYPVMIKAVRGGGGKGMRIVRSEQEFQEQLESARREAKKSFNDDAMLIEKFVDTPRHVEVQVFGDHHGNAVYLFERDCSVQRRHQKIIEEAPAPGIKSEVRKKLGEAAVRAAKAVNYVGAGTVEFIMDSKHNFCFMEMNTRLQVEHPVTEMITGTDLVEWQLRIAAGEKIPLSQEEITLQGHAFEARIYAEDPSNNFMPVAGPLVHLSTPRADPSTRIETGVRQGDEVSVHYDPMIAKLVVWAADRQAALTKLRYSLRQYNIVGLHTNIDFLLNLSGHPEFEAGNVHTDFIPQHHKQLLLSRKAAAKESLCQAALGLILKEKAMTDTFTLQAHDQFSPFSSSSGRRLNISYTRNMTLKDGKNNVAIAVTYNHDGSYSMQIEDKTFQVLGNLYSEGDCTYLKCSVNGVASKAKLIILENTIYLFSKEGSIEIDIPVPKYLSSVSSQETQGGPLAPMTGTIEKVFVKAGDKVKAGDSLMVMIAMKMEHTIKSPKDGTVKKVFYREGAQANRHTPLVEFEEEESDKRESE
UniProt Q08431: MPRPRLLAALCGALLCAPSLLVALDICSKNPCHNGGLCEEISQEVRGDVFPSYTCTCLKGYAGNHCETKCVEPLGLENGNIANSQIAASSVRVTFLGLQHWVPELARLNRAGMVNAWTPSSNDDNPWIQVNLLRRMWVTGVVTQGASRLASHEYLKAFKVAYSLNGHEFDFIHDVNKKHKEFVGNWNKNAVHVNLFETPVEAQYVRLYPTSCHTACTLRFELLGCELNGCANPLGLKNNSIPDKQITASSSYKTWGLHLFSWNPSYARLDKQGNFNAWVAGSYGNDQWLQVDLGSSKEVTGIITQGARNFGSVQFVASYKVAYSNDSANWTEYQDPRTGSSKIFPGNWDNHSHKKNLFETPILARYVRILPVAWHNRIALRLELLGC
UniProt Q86V88: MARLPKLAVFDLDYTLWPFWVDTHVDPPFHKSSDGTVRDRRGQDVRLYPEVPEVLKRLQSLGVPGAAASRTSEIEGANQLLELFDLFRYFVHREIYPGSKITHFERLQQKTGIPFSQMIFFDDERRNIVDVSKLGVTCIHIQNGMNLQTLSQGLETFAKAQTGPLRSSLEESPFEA
UniProt O60244: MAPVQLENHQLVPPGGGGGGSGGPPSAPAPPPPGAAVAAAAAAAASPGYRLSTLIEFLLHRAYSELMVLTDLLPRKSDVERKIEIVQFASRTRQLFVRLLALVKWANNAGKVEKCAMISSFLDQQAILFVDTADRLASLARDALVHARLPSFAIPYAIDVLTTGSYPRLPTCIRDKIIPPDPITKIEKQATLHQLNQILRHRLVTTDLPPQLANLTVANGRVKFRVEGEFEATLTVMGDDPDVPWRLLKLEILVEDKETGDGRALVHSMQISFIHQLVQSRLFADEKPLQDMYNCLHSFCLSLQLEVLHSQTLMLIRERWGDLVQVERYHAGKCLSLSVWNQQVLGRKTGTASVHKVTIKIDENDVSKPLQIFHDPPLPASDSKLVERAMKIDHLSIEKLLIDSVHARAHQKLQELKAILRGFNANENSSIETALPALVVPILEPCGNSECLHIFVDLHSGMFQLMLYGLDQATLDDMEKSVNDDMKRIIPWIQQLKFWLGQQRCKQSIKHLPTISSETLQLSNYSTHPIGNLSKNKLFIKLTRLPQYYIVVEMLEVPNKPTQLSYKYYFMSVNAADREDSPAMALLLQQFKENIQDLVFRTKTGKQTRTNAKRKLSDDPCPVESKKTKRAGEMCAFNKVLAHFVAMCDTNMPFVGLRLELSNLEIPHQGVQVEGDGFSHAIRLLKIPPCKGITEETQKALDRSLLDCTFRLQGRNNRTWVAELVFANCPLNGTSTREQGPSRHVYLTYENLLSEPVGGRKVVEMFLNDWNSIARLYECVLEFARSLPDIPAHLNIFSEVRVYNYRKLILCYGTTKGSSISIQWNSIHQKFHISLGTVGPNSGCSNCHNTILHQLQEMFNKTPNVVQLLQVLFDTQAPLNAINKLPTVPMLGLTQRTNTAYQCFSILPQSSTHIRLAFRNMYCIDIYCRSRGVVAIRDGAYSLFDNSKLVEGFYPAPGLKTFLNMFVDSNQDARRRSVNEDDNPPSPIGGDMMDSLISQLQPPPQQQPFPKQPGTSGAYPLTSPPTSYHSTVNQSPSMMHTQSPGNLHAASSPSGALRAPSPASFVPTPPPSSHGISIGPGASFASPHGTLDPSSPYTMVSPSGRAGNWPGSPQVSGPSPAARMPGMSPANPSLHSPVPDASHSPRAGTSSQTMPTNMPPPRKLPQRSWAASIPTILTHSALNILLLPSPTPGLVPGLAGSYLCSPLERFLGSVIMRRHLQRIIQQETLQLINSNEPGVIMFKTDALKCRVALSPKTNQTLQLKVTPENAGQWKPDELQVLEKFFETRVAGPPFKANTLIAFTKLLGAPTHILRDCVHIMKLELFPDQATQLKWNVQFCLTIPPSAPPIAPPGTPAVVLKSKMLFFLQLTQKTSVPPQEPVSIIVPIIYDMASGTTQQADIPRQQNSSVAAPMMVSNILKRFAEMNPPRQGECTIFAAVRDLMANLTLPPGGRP
UniProt Q96PE7: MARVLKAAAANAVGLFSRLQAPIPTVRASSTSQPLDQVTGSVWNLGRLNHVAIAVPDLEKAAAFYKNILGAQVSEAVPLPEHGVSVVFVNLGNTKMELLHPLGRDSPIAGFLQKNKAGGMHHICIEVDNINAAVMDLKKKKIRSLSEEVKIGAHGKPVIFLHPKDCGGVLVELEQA
UniProt Q6P9B6: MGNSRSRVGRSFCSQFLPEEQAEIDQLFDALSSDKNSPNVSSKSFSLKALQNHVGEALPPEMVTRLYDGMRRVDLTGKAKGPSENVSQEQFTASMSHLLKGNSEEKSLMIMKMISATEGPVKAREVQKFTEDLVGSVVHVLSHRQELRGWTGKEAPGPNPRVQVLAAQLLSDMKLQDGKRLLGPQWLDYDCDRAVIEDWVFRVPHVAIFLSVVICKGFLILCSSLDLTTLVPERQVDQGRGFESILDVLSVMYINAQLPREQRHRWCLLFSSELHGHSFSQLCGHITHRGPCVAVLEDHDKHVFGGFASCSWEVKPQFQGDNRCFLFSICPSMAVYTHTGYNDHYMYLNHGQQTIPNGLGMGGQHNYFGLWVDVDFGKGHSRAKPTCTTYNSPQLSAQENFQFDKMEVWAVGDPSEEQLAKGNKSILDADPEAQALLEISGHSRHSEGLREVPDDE
UniProt P61244, whole entry, looked up: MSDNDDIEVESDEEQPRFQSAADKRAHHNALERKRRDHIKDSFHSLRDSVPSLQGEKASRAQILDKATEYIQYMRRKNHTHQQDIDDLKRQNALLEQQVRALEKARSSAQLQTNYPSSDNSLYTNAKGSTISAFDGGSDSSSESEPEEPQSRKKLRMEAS
UniProt Q14814: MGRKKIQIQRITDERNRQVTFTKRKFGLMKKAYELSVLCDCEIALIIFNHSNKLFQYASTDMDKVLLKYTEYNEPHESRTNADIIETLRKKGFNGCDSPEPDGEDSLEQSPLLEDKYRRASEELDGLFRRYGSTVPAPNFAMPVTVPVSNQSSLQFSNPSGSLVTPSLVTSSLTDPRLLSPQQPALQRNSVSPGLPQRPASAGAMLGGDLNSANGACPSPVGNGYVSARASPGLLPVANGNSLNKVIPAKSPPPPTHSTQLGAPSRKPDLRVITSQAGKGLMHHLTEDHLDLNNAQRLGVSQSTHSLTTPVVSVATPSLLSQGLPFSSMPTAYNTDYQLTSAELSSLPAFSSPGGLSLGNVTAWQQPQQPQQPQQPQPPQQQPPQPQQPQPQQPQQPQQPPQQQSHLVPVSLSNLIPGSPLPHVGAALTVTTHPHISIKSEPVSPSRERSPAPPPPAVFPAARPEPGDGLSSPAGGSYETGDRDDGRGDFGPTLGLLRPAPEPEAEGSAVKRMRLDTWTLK

Assays:
Assay in all cases: log2 fold change, soluble protein after heating vs DMSO (PISA); higher = thermal stabilisation; K562 cells, 10 uM, 30 min; active = over 0.2 and 3.5 SD of the protein, either way, in both replicates (recomputed)
bafetinib = compound: Cc1ccc(NC(=O)c2ccc(CN3CC[C@H](N(C)C)C3)c(C(F)(F)F)c2)cc1Nc1nccc(-c2cncnc2)n1 [bafetinib]
In short: (§1)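 Aliquots of K562 cells (2×10^6 cells/mL) treated with 10 μM compound for 30 min were heated for 3 min over 48°C-58°C. After pooling and extraction in PBS with 0.5% NP-40 at 4°C, soluble protein from a 21,000xg, 90 min spin was quantified by TMTpro 16plex LC-MS/MS with channel sums equalised. Thermal stability is expressed against control samples, from duplicates, as a log2 fold change.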

[1] = compound: Cc1cccc(CC(=O)N2CCc3c2ccc(-c2cn(C)c4ncnc(N)c24)c3F)n1
In short: as §1

nilotinib = compound: Cc1cn(-c2cc(NC(=O)c3ccc(C)c(Nc4nccc(-c5cccnc5)n4)c3)cc(C(F)(F)F)c2)cn1 [nilotinib]
In short: as §1

[2] = compound: Cc1nc(Nc2n[nH]c3c2CN(C(=O)N[C@H](CN(C)C)c2ccccc2)C3(C)C)c2sccc2n1
In short: as §1

dasatinib = compound: Cc1nc(Nc2ncc(C(=O)Nc3c(C)cccc3Cl)s2)cc(N2CCN(CCO)CC2)n1 [dasatinib]
In short: as §1

[3] = compound: Cc1ncc(-c2ccnc(Nc3ccc(S(C)(=O)=O)cc3)n2)n1C(C)C
In short: as §1

[4] = compound: Cn1cc(-c2ccc3c(c2)CCN3C(=O)Cc2cccc(C(F)(F)F)c2)c2c(N)ncnc21
In short: as §1

[5] = compound: Cn1cc(-c2ccc3nnc(C(F)(F)c4ccc5ncccc5c4)n3n2)cn1
In short: as §1

tipifarnib = compound: Cn1cncc1[C@@](N)(c1ccc(Cl)cc1)c1ccc2c(c1)c(-c1cccc(Cl)c1)cc(=O)n2C [tipifarnib]
In short: as §1

mubritinib = compound: FC(F)(F)c1ccc(/C=C/c2nc(COc3ccc(CCCCn4ccnn4)cc3)co2)cc1 [mubritinib]
In short: as §1

[6] = compound: NC(=O)Nc1cc(-c2cccc(F)c2)sc1C(=O)N[C@H]1CCCNC1
In short: as §1

[7] = compound: NC(=O)c1cnc(N[C@@H]2CCCC[C@@H]2N)nc1Nc1cccc(-n2nccn2)c1
In short: as §1

[8] = compound: NC1(c2ccc(-c3nc4ccn5c(=O)[nH]nc5c4cc3-c3ccccc3)cc2)CCC1
In short: as §1

[9] = compound: NCC(=O)Nc1ccc(-n2nc(C(F)(F)F)cc2-c2ccc3c(ccc4ccccc43)c2)cc1
In short: as §1

entinostat = compound: Nc1ccccc1NC(=O)c1ccc(CNC(=O)OCc2cccnc2)cc1 [entinostat]
In short: as §1

vorinostat = compound: O=C(CCCCCCC(=O)Nc1ccccc1)NO [vorinostat]
In short: as §1

citarinostat = compound: O=C(CCCCCCNC(=O)c1cnc(N(c2ccccc2)c2ccccc2Cl)nc1)NO [citarinostat]
In short: as §1

silmitasertib = compound: O=C(O)c1ccc2c(c1)nc(Nc1cccc(Cl)c1)c1ccncc12 [silmitasertib]
In short: as §1

[10] = compound: O=C1NC(=O)C(c2cnc3ccccn23)=C1c1cn2c3c(cc(F)cc13)CN(C(=O)N1CCCCC1)CC2
In short: as §1

[11] = compound: c1cc(OCCN2CCCCC2)cc(-c2n[nH]c3ccc(-c4nnc[nH]4)cc23)c1
In short: as §1

Measured: log2 fold change

MIA2 (UniProt Q96PC5)
inactive: bafetinib -0.068 | [1] -0.029 | nilotinib -0.002 | [2] -0.048 | dasatinib -0.051 | [3] -0.038 | [4] -0.058 | [5] 0.041 | tipifarnib 0.029 | mubritinib -0.046 | [6] 0.03 | [7] -0.03 | [8] 0.06 | [9] -0.032 | entinostat -0.009 | vorinostat 0.009 | citarinostat 0.059 | silmitasertib 0.083 | [10] -0.045 | [11] -0.058

METTL1 (UniProt Q9UBP6)
inactive: bafetinib -0.034 | [1] 0.055 | nilotinib 0.027 | [2] 0.005 | dasatinib 0.048 | [3] 0.015 | [4] 0.053 | [5] -0.019 | tipifarnib 0.041 | mubritinib 0.057 | [6] -0.063 | [7] -0.011 | [8] -0.037 | [9] 0.043 | entinostat 0.006 | vorinostat -0.03 | citarinostat 0.03 | silmitasertib -0.008 | [10] -0.024 | [11] 0.012

MGST3 (UniProt O14880)
inactive: bafetinib -0.085 | [1] -0.002 | nilotinib 0.01 | [2] 0.012 | dasatinib 0.069 | [3] -0.056 | [4] 0.004 | [5] -0.026 | tipifarnib 0.019 | mubritinib -0.094 | [6] -0.04 | [7] -0.07 | [8] 0.076 | [9] 0.009 | entinostat -0.047 | vorinostat -0.043 | citarinostat -0.005 | silmitasertib -0.011 | [10] -0.025 | [11] -0.056

MCCC2 (UniProt Q9HCC0)
inactive: bafetinib -0.047 | [1] -0.062 | nilotinib 0.035 | [2] -0.012 | dasatinib 0.058 | [3] -0.047 | [4] 0.04 | [5] 0.028 | tipifarnib -0.005 | mubritinib -0.015 | [6] 0.047 | [7] -0.014 | [8] 0.036 | [9] 0.06 | entinostat 0.005 | vorinostat -0.043 | citarinostat 0.083 | silmitasertib 0.025 | [10] 0.006 | [11] -0.024

MARS2 (UniProt Q96GW9)
inactive: bafetinib -0.074 | [1] -0.096 | nilotinib -0.006 | [2] -0.001 | dasatinib 0.021 | [3] -0.009 | [4] 0.047 | [5] 0.055 | tipifarnib -0.017 | mubritinib 0.004 | [6] 0.013 | [7] 0.009 | [8] -0.012 | [9] 0.041 | entinostat -0.01 | vorinostat 0.033 | citarinostat 0.041 | silmitasertib -0.028 | [10] -0.044 | [11] -0.02

MCCC1 (UniProt Q96RQ3)
inactive: bafetinib 0.147 | [1] 0.039 | nilotinib 0.035 | [2] 0.033 | dasatinib -0.119 | [3] 0.014 | [4] 0.016 | [5] 0.011 | tipifarnib -0.126 | mubritinib 0.051 | [6] -0.004 | [7] -0.013 | [8] -0.133 | [9] -0.026 | entinostat 0.007 | vorinostat 0.003 | citarinostat -0.171 | silmitasertib -0.052 | [10] -0.08 | [11] 0.011

MFGE8 (UniProt Q08431)
inactive: bafetinib 0.024 | [1] 0.002 | nilotinib 0.168 | [2] 0.008 | dasatinib 0.049 | [3] -0.039 | [4] -0.057 | [5] -0.029 | tipifarnib 0.033 | mubritinib -0.096 | [6] -0.163 | [7] -0.058 | [8] 0.049 | [9] 0.125 | entinostat -0.082 | vorinostat 0.03 | citarinostat -0.036 | silmitasertib 0.117 | [10] 0.007 | [11] -0.029

MAST4 (UniProt O15021)
active: [2] -0.757
inactive: bafetinib -0.029 | [1] 0.034 | nilotinib -0.073 | dasatinib -0.112 | [3] -0.004 | [4] 0.131 | [5] 0.09 | tipifarnib -0.087 | mubritinib -0.003 | [6] -0.217 | [7] -0.038 | [8] -0.298 | [9] -0.115 | entinostat 0.085 | vorinostat 0.045 | citarinostat 0.135 | silmitasertib -0.053 | [10] 0.051 | [11] -0.151

MDP1 (UniProt Q86V88)
inactive: bafetinib 0.076 | [1] -0.031 | nilotinib 0.013 | [2] -0.022 | dasatinib 0.091 | [3] 0.028 | [4] -0.017 | [5] 0.128 | tipifarnib -0.124 | mubritinib 0.054 | [6] -0.035 | [7] -0.024 | [8] -0.032 | [9] 0.021 | entinostat 0.019 | vorinostat -0.117 | citarinostat 0.025 | silmitasertib 0.01 | [10] -0.073 | [11] -0.014

MED14 (UniProt O60244)
inactive: bafetinib -0.007 | [1] 0.071 | nilotinib 0.125 | [2] -0.134 | dasatinib -0.078 | [3] -0.134 | [4] 0.056 | [5] -0.098 | tipifarnib 0.045 | mubritinib 0.036 | [6] 0.041 | [7] -0.129 | [8] 0.059 | [9] -0.051 | entinostat -0.075 | vorinostat 0.148 | citarinostat 0.088 | silmitasertib 0.001 | [10] 0.092 | [11] -0.502

MAT2B (UniProt Q9NZL9)
inactive: bafetinib -0.041 | [1] 0.013 | nilotinib 0.007 | [2] 0.002 | dasatinib 0.074 | [3] -0.006 | [4] 0.021 | [5] 0.023 | tipifarnib 0.025 | mubritinib 0.04 | [6] -0.038 | [7] -0.058 | [8] 0 | [9] -0.036 | entinostat -0.036 | vorinostat -0.002 | citarinostat -0.012 | silmitasertib 0.006 | [10] -0.058 | [11] 0.002

MCEE (UniProt Q96PE7)
inactive: bafetinib -0.041 | [1] -0.047 | nilotinib 0.023 | [2] 0.064 | dasatinib -0.017 | [3] 0.019 | [4] 0.045 | [5] 0.01 | tipifarnib -0.03 | mubritinib 0.045 | [6] 0.017 | [7] -0.014 | [8] -0.005 | [9] -0.052 | entinostat 0.048 | vorinostat -0.034 | citarinostat 0.056 | silmitasertib 0.021 | [10] -0.05 | [11] -0.04

MEAK7 (UniProt Q6P9B6)
inactive: bafetinib -0.094 | [1] 0.042 | nilotinib 0.024 | [2] -0.036 | dasatinib -0.078 | [3] 0.025 | [4] 0.02 | [5] -0.03 | tipifarnib -0.022 | mubritinib 0.052 | [6] -0.011 | [7] -0.117 | [8] -0.122 | [9] -0.025 | entinostat 0.027 | vorinostat 0.069 | citarinostat 0.053 | silmitasertib -0.028 | [10] -0.021 | [11] 0.016

MAX (UniProt P61244)
inactive: bafetinib -0.036 | [1] -0.029 | nilotinib 0.059 | [2] -0.06 | dasatinib 0.051 | [3] 0.032 | [4] -0.001 | [5] 0.022 | tipifarnib 0.011 | mubritinib 0.063 | [6] -0.013 | [7] 0.059 | [8] 0.031 | [9] 0.158 | entinostat -0.047 | vorinostat -0.188 | citarinostat -0.124 | silmitasertib -0.131 | [10] -0.049 | [11] 0.017

MED16 (UniProt Q9Y2X0)
inactive: bafetinib 0.018 | [1] -0.009 | nilotinib -0.014 | [2] -0.092 | dasatinib 0.141 | [3] -0.287 | [4] -0.144 | [5] 0.009 | tipifarnib -0.029 | mubritinib 0.024 | [6] 0.108 | [7] 0.021 | [8] -0.005 | [9] -0.044 | entinostat -0.047 | vorinostat 0.107 | citarinostat -0.094 | silmitasertib 0.026 | [10] 0.06 | [11] -0.117

Quoted from above (two entries):
MFGE8 (UniProt Q08431)
inactive: bafetinib 0.024 | [1] 0.002 | nilotinib 0.168 | [2] 0.008 | dasatinib 0.049 | [3] -0.039 | [4] -0.057 | [5] -0.029 | tipifarnib 0.033 | mubritinib -0.096 | [6] -0.163 | [7] -0.058 | [8] 0.049 | [9] 0.125 | entinostat -0.082 | vorinostat 0.03 | citarinostat -0.036 | silmitasertib 0.117 | [10] 0.007 | [11] -0.029

MAST4 (UniProt O15021)
active: [2] -0.757
inactive: bafetinib -0.029 | [1] 0.034 | nilotinib -0.073 | dasatinib -0.112 | [3] -0.004 | [4] 0.131 | [5] 0.09 | tipifarnib -0.087 | mubritinib -0.003 | [6] -0.217 | [7] -0.038 | [8] -0.298 | [9] -0.115 | entinostat 0.085 | vorinostat 0.045 | citarinostat 0.135 | silmitasertib -0.053 | [10] 0.051 | [11] -0.151

More entries follow.

MEF2D (UniProt Q14814)
inactive: bafetinib -0.052 | [1] -0.012 | nilotinib 0.016 | [2] 0.007 | dasatinib -0.072 | [3] -0.037 | [4] 0.04 | [5] 0.006 | tipifarnib 0.013 | mubritinib 0.007 | [6] -0.058 | [7] 0.003 | [8] -0.041 | [9] -0.058 | entinostat -0.031 | vorinostat -0.06 | citarinostat 0.057 | silmitasertib -0.006 | [10] -0.058 | [11] -0.143
